Data from patent US20210300943A1, “OGA INHIBITOR COMPOUNDS” (Janssen Pharmaceutica NV, priority 2018, published 2021).
Structures were worked out from names or drawings and are uncertain.

By UniProt entry, the sequences of proteins in these tests, tags left out.
UniProt O60502, whole entry: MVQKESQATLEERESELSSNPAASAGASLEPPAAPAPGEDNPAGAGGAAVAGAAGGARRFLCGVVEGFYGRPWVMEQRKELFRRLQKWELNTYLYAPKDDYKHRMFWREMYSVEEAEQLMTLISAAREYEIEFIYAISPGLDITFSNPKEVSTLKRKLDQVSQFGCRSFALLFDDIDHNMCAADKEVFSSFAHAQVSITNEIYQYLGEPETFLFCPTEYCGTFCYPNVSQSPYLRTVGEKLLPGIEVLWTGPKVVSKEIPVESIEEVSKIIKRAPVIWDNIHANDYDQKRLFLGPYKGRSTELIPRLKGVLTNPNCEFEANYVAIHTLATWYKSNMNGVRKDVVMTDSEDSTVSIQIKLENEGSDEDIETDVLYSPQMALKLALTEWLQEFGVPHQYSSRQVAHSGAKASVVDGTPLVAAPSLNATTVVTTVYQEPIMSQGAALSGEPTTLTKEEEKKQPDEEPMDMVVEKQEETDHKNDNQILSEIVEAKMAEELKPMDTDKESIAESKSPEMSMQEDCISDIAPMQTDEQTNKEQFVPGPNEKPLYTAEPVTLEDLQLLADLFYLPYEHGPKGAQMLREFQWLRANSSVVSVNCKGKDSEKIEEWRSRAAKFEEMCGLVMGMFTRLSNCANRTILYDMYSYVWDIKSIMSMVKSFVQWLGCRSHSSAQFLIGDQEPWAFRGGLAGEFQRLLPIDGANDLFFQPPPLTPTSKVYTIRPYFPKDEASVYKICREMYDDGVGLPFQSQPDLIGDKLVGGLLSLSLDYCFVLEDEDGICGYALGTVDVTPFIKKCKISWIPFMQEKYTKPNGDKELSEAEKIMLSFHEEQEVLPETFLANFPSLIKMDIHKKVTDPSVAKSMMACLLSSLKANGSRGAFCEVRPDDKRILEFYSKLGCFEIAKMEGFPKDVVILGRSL

Experiments:
[1] = biological target: recombinant human Meningioma Expressed Antigen 5 (MGEA5), also referred to as O-GlcNAcase (OGA) (Homo sapiens, UniProt O60502); experiment: OGA biochemical assay (inhibition of FM-GlcNAc hydrolysis, fluorescence)
Excerpt: The assay is based on the inhibition of the hydrolysis of fluorescein mono-β-D-N-Acetyl-Glucosamine (FM-GlcNAc) (Mariappa et al. 2015, Biochem J 470:255) by the recombinant human Meningioma Expressed Antigen 5 (MGEA5), also referred to as O-GlcNAcase (OGA). The hydrolysis FM-GlcNAc (Marker Gene technologies, cat #M1485) results in the formation of β-D-N-glucosamineacetate and fluorescein. The fluorescence of the latter can be measured at excitation wavelength 485 nm and emission wavelength 538 nm. An increase in enzyme activity results in an increase in fluorescence signal. Full length OGA enzyme was purchased at OnGene (cat #TP322411). The enzyme was stored in 25 mM Tris.HCl, pH 7.3, 100 mM glycine, 10% glycerol at −20° C. Thiamet G and GlcNAcStatin were tested as reference compounds (Yuzwa et al. 2008 Nature Chemical Biology 4:483; Yuzwa et al. 2012 Nature Chemical Biology 8:393). The assay was performed in 200 mM Citrate/phosphate buffer supplemented with 0.005% Tween-20. […]
50 nl of a compound dissolved in DMSO was dispensed on Black Proxiplate TM 384 Plus Assay plates (Perkin Elmer, #6008269) and 3 μl fl-OGA enzyme mix added subsequently. […] Fluorescence was quantified in the Thermo Scientific Fluoroskan Ascent or the PerkinElmer EnVision with excitation wavelength 485 nm and emission wavelength 538 nm. […]

OGA = OGA (Homo sapiens, UniProt O60502); experiment: OGA cellular assay (ICC detection of O-GlcNAcylated proteins in HEK293 cells inducible for P301L mutant human Tau)
Experimental: HEK293 cells inducible for P301L mutant human Tau (isoform 2N4R) were established at Janssen. Thiamet-G was used for both plate validation (high control) and as reference compound (reference EC50 assay validation). OGA inhibition is evaluated through the immunocytochemical (ICC) detection of O-GlcNAcylated proteins by the use of a monoclonal antibody (CTD110.6; Cell Signaling, #9875) detecting 0-GlcNAcylated residues as previously described (Dorfmueller et al. 2010 Chemistry & biology, 17:1250). Inhibition of OGA will result in an increase of O-GlcNAcylated protein levels resulting in an increased signal in the experiment. Cell nuclei are stained with Hoechst to give a cell culture quality control and a rough estimate of immediate compounds toxicity, if any. ICC pictures are imaged with a Perkin Elmer Opera Phenix plate microscope and quantified with the provided software Perkin Elmer Harmony 4.1.
Cells were propagated in DMEM high Glucose (Sigma, #D5796) following standard procedures. 2 days before the cell assay cells are split, counted and seeded in Poly-D-Lysine (PDL) coated 96-wells (Greiner, #655946) plate at a cell density of 12,000 cells per cm^2 (4,000 cells per well) in 100 μl of Assay Medium (Low Glucose medium is used to reduce basal levels of GlcNAcylation) (Park et al. 2014 The Journal of biological chemistry 289:13519). […]

SMILES: COc1cc(C[C@H]2CCCN(C(C)c3cc4c(cc3F)OCCO4)C2)cc(C)n1 (stereo partly drawn)
- Enzymatic hOGA; pIC50 [1]: 8.2
- Cellular hOGA; pEC50 (OGA; 6 hours incubation): 7.5
- Cellular Emax (%) (OGA; maximal effect, Thiamet G 200 uM as maximum): 85%
